Source: the supplement of paper PMC4604168 (melanoma cell lines)
This is one part of the list. Repeats are few or missing, and single values can be far off.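 Imaging used 1,536-well plates; nuclei positive for cleaved PARP by antibody were divided by total DNA-stained nuclei to yield the apoptosis fraction. Doses for screening kept most cells viable, and cell lines differ markedly in resting and induced cleaved-PARP levels.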

Assays:
Assay in all cases: cleaved PARP positive nuclei fraction relative to DMSO control; melanoma cells; higher = more apoptosis
Settings in all cases: library dose: low library concentration; 72 h
[1] = test system: MeWo
[2] = test system: RPMI7951
[3] = test system: RVH-421
[4] = test system: SkMel28
[5] = test system: SkMel30
[6] = test system: SkMel5
[7] = test system: UACC257
[8] = test system: UACC62
[9] = test system: WM115
[10] = test system: WM1716
[11] = test system: WM1745
[12] = test system: WM3526
[13] = test system: WM3619
[14] = test system: WM451Lu
[15] = test system: SkMel2

SMILES	cleaved PARP positive nuclei fraction [1]	cleaved PARP positive nuclei fraction [2]	cleaved PARP positive nuclei fraction [3]	cleaved PARP positive nuclei fraction [4]	cleaved PARP positive nuclei fraction [5]	cleaved PARP positive nuclei fraction [6]	cleaved PARP positive nuclei fraction [7]	cleaved PARP positive nuclei fraction [8]	cleaved PARP positive nuclei fraction [9]	cleaved PARP positive nuclei fraction [10]	cleaved PARP positive nuclei fraction [11]	cleaved PARP positive nuclei fraction [12]	cleaved PARP positive nuclei fraction [13]	cleaved PARP positive nuclei fraction [14]	cleaved PARP positive nuclei fraction [15]
CO[C@@H]1[C@H](N(C)C(=O)c2ccccc2)C[C@H]2O[C@]1(C)n1c3ccccc3c3c4c(c5c6ccccc6n2c5c31)C(=O)NC4 [Midostaurin] + c1cc(-c2cnn3cc(-c4ccc(OCCN5CCCCC5)cc4)cnc23)ccn1 [Dorsomorphin] (first compound 0.08 µM, partner dose 0.4 µM)	226%	41.7%	146%	109%	23.3%	64%	118%	78.4%	19.6%	59.9%	118%	60.4%	81.9%	90.7%	
Cc1cc(N2CCOCC2)cc2[nH]c(-c3c(NC[C@@H](O)c4cccc(Cl)c4)cc[nH]c3=O)nc12 + Oc1cc(-c2nc(-c3ccccc3)[nH]c2-c2ccncc2)ccc1Cl [L779450] (first compound 0.2 µM, partner dose 0.2 µM)	148%	88.9%	97.7%	101%	49.2%	35%	44.8%	270%	88.1%	124%	160%	111%	108%	82.6%	
Cn1nnc2c(C(N)=O)ncn2c1=O [temozolomide] + Oc1nc(-c2ccc(C(F)(F)F)cc2)nc2c1CSCC2 [XAV939] (first compound 2 µM, partner dose 2 µM)	171%	95.8%	114%	71.2%	430%	96.9%	225%	232%	150%	127%	110%	58.3%	103%	82.4%	
OCc1c[nH]c2ccccc12 [Indole-3-carbinol] + NCC(=O)Nc1ccc(-n2nc(C(F)(F)F)cc2-c2ccc3c(ccc4ccccc43)c2)cc1 [OSU03012] (first compound 0.8 µM, partner dose 1 µM)	99.1%	260%	44.7%	38.1%	129%	97.1%	85.3%	183%	91.2%	88%	82.1%	86.4%	94.9%	44.7%	
C#Cc1cccc(Nc2ncnc3cc(OCCOC)c(OCCOC)cc23)c1 [erlotinib] + COc1ccc(Cl)c(Nc2nc3ccccc3nc2NS(=O)(=O)c2cccc(NC(=O)C(C)(C)N)c2)c1 [XL147] (first compound 0.8 µM, partner dose 0.8 µM)	202%	154%	68.2%	91.7%	77.6%			38.9%	120%	39.1%	109%	40%	95.1%	107%	
OCc1c[nH]c2ccccc12 [Indole-3-carbinol] + Clc1ccc(Nc2nnc(Cc3ccncc3)c3ccccc23)cc1 [vatalanib] (first compound 0.8 µM, partner dose 2 µM)	118%	53%	120%	95.6%	97.3%			88%	129%	79.1%	94%	44.4%	79.4%	97.2%	
C[C@]1(c2nc3c(C(N)=O)cccc3[nH]2)CCCN1 [Veliparib] + Cc1cc(N2CCOCC2)cc2[nH]c(-c3c(NC[C@@H](O)c4cccc(Cl)c4)cc[nH]c3=O)nc12 [BMS536924] (first compound 1.4 µM, partner dose 0.2 µM)	60.8%	163%	83.3%	72.3%	138%	71.8%	188%	140%	161%	164%	105%	31.1%	130%	466%	
Cc1nc(Nc2ncc(C(=O)Nc3c(C)cccc3Cl)s2)cc(N2CCN(CCO)CC2)n1 [dasatanib] + NC(=O)Nc1cc(-c2cccc(F)c2)sc1C(=O)N[C@H]1CCCNC1 [AZD7762] (first compound 0.004 µM, partner dose 0.02 µM)	198%	74.6%	61.8%	145%	67.9%	143%	82.6%	110%	277%	139%	121%	68.7%	87.4%	584%	
O=C(Nc1cccc(Cl)c1)Nc1ncc(CCNc2ncnc3ccsc23)s1 + CN(NC(=O)CC(=O)NN(C)C(=S)c1ccccc1)C(=S)c1ccccc1 [STA4783] (first compound 0.0008 µM, partner dose 0.006 µM)	174%	51.4%	99.6%	71.6%	65.2%	56.9%	102%	96.3%	389%	125%	174%	125%	205%	142%	
O=C(CCCCCCC(=O)Nc1ccccc1)NO [vorinostat] + OCCn1cc(-c2cnc3nnn(Cc4ccc5ncccc5c4)c3n2)cn1 [PF04217903] (first compound 0.08 µM, partner dose 1 µM)	163%	94.1%	51.2%	73.5%	65.2%	151%	84.4%	235%	65.4%	244%	78.2%	65.7%	95.3%	152%	74.3%
COCC[n+]1c2c(n(Cc3cnccn3)c1C)C(=O)c1ccccc1C2=O + COc1cc(N2CCC(N3CCN(C)CC3)CC2)ccc1Nc1ncc(Cl)c(Nc2ccccc2S(=O)(=O)C(C)C)n1 [NVP-TAE684] (first compound 0.0004 µM, partner dose 0.08 µM)	193%	134%	113%	87.5%	340%	86.6%	146%	53%	121%	123%	94.2%	38.4%	83.1%	194%	
C=CCNC1=C2C[C@@H](C)C[C@H](OC)[C@H](O)[C@@H](C)/C=C(\C)[C@H](OC(N)=O)[C@@H](OC)/C=C\C=C(/C)C(=O)NC(=CC1=O)C2=O [Tanespimycin] + COc1ccc(-c2ccc3c(N4CCOCC4)nc(N4C[C@@H](C)O[C@@H](C)C4)nc3n2)cc1CO [KU0063794] (first compound 0.002 µM, partner dose 0.02 µM)	42.1%	110%	99.8%	53.8%	35.7%	129%	25%	47.2%	156%	148%	88.9%	78.9%	105%	137%	132%
O=C(Nc1cccc(Cl)c1)Nc1ncc(CCNc2ncnc3ccsc23)s1 + O=C(O)c1ccc(-c2c[nH]c3ncc(-c4ccccc4)cc23)cc1C1CCCC1 [GSK650394] (first compound 0.0008 µM, partner dose 0.16 µM)	102%	109%	23.9%	67.3%	65.6%	77.5%	42.1%	117%	59.4%	106%	106%	61.2%	107%	50.2%	

Look-ups from the entries so far.
O=C(Nc1cccc(Cl)c1)Nc1ncc(CCNc2ncnc3ccsc23)s1 + O=C(O)c1ccc(-c2c[nH]c3ncc(-c4ccccc4)cc23)cc1C1CCCC1 [GSK650394] (first compound 0.0008 µM, partner dose 0.16 µM) | cleaved PARP positive nuclei fraction [3]: 23.9%
Cn1nnc2c(C(N)=O)ncn2c1=O [temozolomide] + Oc1nc(-c2ccc(C(F)(F)F)cc2)nc2c1CSCC2 [XAV939] (first compound 2 µM, partner dose 2 µM) | cleaved PARP positive nuclei fraction [6]: 96.9%
